Variants at the background level are over-represented here.
B1: tRNA (parent)
chain: GUUCCGUUGGCGUAAUGGUAACGCGUCUCCCUCCUAAGGAGAAGACUGCGGGUUCGAGUCCCGUACGGAACG

Variants of: B1
Assay: yeast fitness relative to wild type (ratio to wild type); higher = fitter; tRNA-Arg(CCU), competitive growth, 37 C, YPD
In short: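 Variants of the tRNA-Arg(CCU) gene, chemically synthesised with a 3% per-site mutation rate at 69 sites, were placed at the native genomic locus in Saccharomyces cerevisiae. The pooled strains were competed in YPD at 37°C for 24 hours in six parallel replicates. Gene amplicons from the start population and from each end population were read by 100-nucleotide paired-end sequencing. Darwinian fitness relative to wild type came from changes in genotype frequencies; genotypes needed ≥ 100 starting reads, and estimates < 0.5 were set to 0.5.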

Variant | yeast fitness
U8C A15C A20U G67C | ≤ 0.5
C11A G12A U16A G23C G56A | ≤ 0.5
A21G C49U U59G | 0.619
C11U G25A C62U A70C | 0.67
A20G U26G A45C C49G | ≤ 0.5
G18A A37C G48A A69C | ≤ 0.5
C24A U35G C55U | ≤ 0.5
G9A U16C A20C A40G G44U C55U | ≤ 0.5
G10A C33U G50A | ≤ 0.5
G12C U16A C60G C61U G68A | ≤ 0.5
U13G A36C G39A | ≤ 0.5
U8A C11G G50A | ≤ 0.5
A14U A45G U53C | ≤ 0.5
A20G U35A A36U C61U | ≤ 0.5
C5U C30U U32G A36G A37U U47A | ≤ 0.5
C5U C24A G39C U54C C60G | ≤ 0.5
U19G C22G U32G A57C C62U | ≤ 0.5
C33A A42G G68A A70U | ≤ 0.5
C29G G51A A69U | ≤ 0.5
C27G G38A C49G | ≤ 0.5
C30U G39A C60G | 0.57

Variant | yeast fitness
C4U A14G A45C | 0.542
A14G C22G C30G | ≤ 0.5
C34A A40G U47A C66G A69C | ≤ 0.5
C4G U8A G12A C31A | ≤ 0.5
A15G G17C A21C | ≤ 0.5
G12A A15C A36U A65C | ≤ 0.5
A43C A70G | 1.05
C46G U59G C61G | ≤ 0.5
U16C A40C A57G C61U | ≤ 0.5
U13A A14U C22G A45U G63A | ≤ 0.5
G6C A45C | 0.614
G9A C30U G39A A40G G67A | ≤ 0.5
C5A A40C A57U C62G | ≤ 0.5
C11G C29G C33U C46A C49G | 0.564
U2G U13G U16C C49A | ≤ 0.5
G23A C33G U35G C60U C62G | ≤ 0.5
G38A A45C U64C | ≤ 0.5
U3G C4G U13C A20U C34U C62G A69U | ≤ 0.5
C4U U13G C29U C34U | ≤ 0.5
G9C C22A C34A C49U A65G | ≤ 0.5
U7C A37C C60G G63A A65U A70C | ≤ 0.5

Variant | yeast fitness
A40U C61U | 0.783
A20C A21U C31U A70G | ≤ 0.5
U16C A21C C49A G58A C66U G68A | ≤ 0.5
C24G A45C C60A G68U | ≤ 0.5
U3A C30G A69U | ≤ 0.5
G9C G10A C24G A37U | ≤ 0.5
U16A A21U C27U A40U A65U | ≤ 0.5
G9C U47G G52A C61A G67C | ≤ 0.5
A20U U26C C33G | ≤ 0.5
G23A G39C A70G | ≤ 0.5
U3C A14G G18A C30A A40G C55G U59A | ≤ 0.5
C5U G12A C30A C62A | ≤ 0.5
A57U A65C C66G | ≤ 0.5
G17C C24A A45C A65G | ≤ 0.5
A14G C46U G50A G52C G67C | ≤ 0.5
U2G C22G G41C | ≤ 0.5
C4U G18C U47G | ≤ 0.5
U54C C55A | 0.635
A20G A21G C29G A43C C61G | ≤ 0.5
C5G G10C U32C G52C U59A | ≤ 0.5
G17C A21G C33A C49U C55G | ≤ 0.5

Variant | yeast fitness
C11G A20U C24A G25C | ≤ 0.5
C11U U47A C60U A69C | ≤ 0.5
C5G C11G A14U A15U C60A C62G | ≤ 0.5
U8A U13A A14C | ≤ 0.5
U7G C11U G38A G51A U54A | ≤ 0.5
U7C G48C C66G | ≤ 0.5
C11U C30A G39A U47A G63C | ≤ 0.5
C5G C11A A15G G18A C30G A69C | ≤ 0.5
C27A A40G C61G C66U | ≤ 0.5
A14U A20C C31G A69U | ≤ 0.5
C27G U28A C30G C31U C62G | ≤ 0.5
C27A U28A G41A G48A A65G | ≤ 0.5
C5U G18C U26G | ≤ 0.5
G9C G39C A45C | ≤ 0.5
G9C C27A G51C | ≤ 0.5
U32G G68C A69G | ≤ 0.5
C27A G44C G50C | 0.639
C5G C11U C31U G52A U54A A70C | ≤ 0.5
A14U A43C C49G C62G | ≤ 0.5
C4A A15U A42G | ≤ 0.5

Source: the RNAGym collection of RNA variant scans (doi:10.1126/science.aae0568)
